Patent US20250009779A1 (priority 2021, published 2025)
Where two headings read alike, the source gives them in different places. For at least one compound, name, drawing or mass did not settle the structure.

Assays:
COVID-19 = details: in combination with remdesivir, hospitalized patients with COVID-19; cited from earlier work
macrophages = assay type: cell-based, human; details: for superinduction of TNF and IL-6: macrophages exposed to SARS-pDC supernatants 24 hours, then LPS, Pam3Cys, Poly I:C or ORN8L 6 hours, FIG. 3F, 17A-17G

SMILES | mortality (COVID-19) | activation of macrophage by supernatants of SARS-pDCs (macrophages; baricitinib (2 μM), 24 hours, FIGS. 16A-16B) | superinduction of TNF and IL-6 (macrophages; baricitinib (2 μM)) | superinduction of TNF and IL-6 (macrophages; baricitinib (2 μM), listed as baricitinib) | TNF and IL-6 secretion (macrophages; macrophages incubated 24 hours with supernatants of SARS-pDCs, baricitinib (2 μM), ELISA, FIG. 16B) | induction of CXCL10 (macrophages; macrophages incubated 24 hours with supernatants of SARS-pDCs, baricitinib (2 μM), qPCR, FIG. 16A) | inflammatory gene induction upon challenge with LPS (TNF and IL-6) (macrophages; SARS-pDC SN with TLR7 inhibitor IRS661 or PI3Kδ inhibitor CAL-101 (10 μM), 24 h, then LPS 6 h, FIG. 4F, FIG. 20A)
CCS(=O)(=O)N1CC(CC#N)(n2cc(-c3ncnc4[nH]ccc34)cn2)C1 [Baricitinib] | significantly reduced | blocked | prevented | blocked | prevented | prevented | –
CC[C@H](Nc1ncnc2[nH]cnc12)c1nc2cccc(F)c2c(=O)n1-c1ccccc1 [CAL-101] | – | – | – | – | – | – | reduced
